Values quoted from earlier work as cited in patent publication US20110052685A1, “GASTRIC RETENTIVE PHARMACEUTICAL COMPOSITIONS FOR IMMEDIATE AND EXTENDED RELEASE OF ACETAMINOPHEN” (DEPOMED, INC., priority 2009, published 2011).
Where two headings read alike, the source gives them in different places.

Conditions: general statement

SMILES: CC(=O)Nc1ccc(O)cc1 [acetaminophen, N-(4-hydroxyphenyl)acetamine]
- solubility in water: sparingly soluble in water
- solubility in water (listed as Acetaminophen): poorly soluble in water
